# Data published in PubChem BioAssay AID220 (DTP/NCI, 2004).
# The list is a part of this screen's results and no random one: its compounds were picked by chemical class. Other doses and runs of a compound may be missing. T/C is the treated group as % of the vehicle group. Schedule codes are those of the source, read here as Q, the interval in days (D) or hours (H), X, the number of doses. Some entries show no survivor count and are marked so; the dose need not have been tolerated. Some entries were tested several times; the values are given in rising order.
# System: CD8F1 mice, subcutaneous mammary adenocarcinoma, T/C%
# Experiment: NCI In Vivo Anticancer Drug Screen. Data for tumor model Mammary Adenocarcinoma CD8F1 (subcutaneous) in CD8F1
# Conditions: vehicle: saline, higher T/C = larger tumour
# Description: The antitumor activity of compounds was measured in mice bearing transplantable tumors. Survival or tumor size were measured and the results are expressed as the measurement made in the treated group (T) divided by the measurement made in the vehicle treated control group (C). The tumor model used in this assay is Mammary Adenocarcinoma CD8F1 (subcutaneous) in CD8F1
smiles,measurement,setting,value
CN(CCCl)CCCl,T/C,"T/C endpoint: mean tumor weight (est.), dose: 0.25 mg/kg/injection, schedule: Q07DX002 (ip), evaluation day not shown",79 % of control [survivor count not shown]
same,T/C,"T/C endpoint: mean tumor weight (est.), dose: 0.5 mg/kg/injection, schedule: Q07DX002 (ip), evaluation day not shown",78 % of control [survivor count not shown]
same,T/C,"T/C endpoint: mean tumor weight (est.), dose: 1.0 mg/kg/injection, schedule: Q07DX002 (ip), evaluation day not shown",67 % of control [survivor count not shown]
same,T/C,"T/C endpoint: mean tumor weight, dose: 0.13 mg/kg/injection, schedule: Q01DX009 (ip), evaluation day not shown",98 % of control [survivor count not shown]
same,T/C,"T/C endpoint: mean tumor weight, dose: 0.13 mg/kg/injection, schedule: Q07DX006 (ip), evaluation day not shown",90 % of control [survivor count not shown]
same,T/C,"T/C endpoint: mean tumor weight, dose: 0.25 mg/kg/injection, schedule: Q01DX009 (ip), evaluation day not shown",36 % of control [survivor count not shown]
same,T/C,"T/C endpoint: mean tumor weight, dose: 0.25 mg/kg/injection, schedule: Q07DX006 (ip), evaluation day not shown",417 % of control [survivor count not shown]
same,T/C,"T/C endpoint: mean tumor weight, dose: 0.5 mg/kg/injection, schedule: Q01DX009 (ip), evaluation day not shown",7 % of control [survivor count not shown]
same,T/C,"T/C endpoint: mean tumor weight, dose: 0.5 mg/kg/injection, schedule: Q07DX006 (ip), evaluation day not shown",34 % of control [survivor count not shown]
same,T/C,"T/C endpoint: mean tumor weight, dose: 1.0 mg/kg/injection, schedule: Q07DX006 (ip), evaluation day not shown",19 % of control [survivor count not shown]
same,T/C,"T/C endpoint: mean tumor weight, dose: 5.0 mg/kg/injection, schedule: Q07DX006 (ip), evaluation day not shown",85 % of control [survivor count not shown]
same,T/C,"T/C endpoint: median tumor weight (est.), dose: 0.06 mg/kg/injection, schedule: Q07DX005 (ip), evaluated on day 30",209 % of control
same,T/C,"T/C endpoint: median tumor weight (est.), dose: 0.06 mg/kg/injection, schedule: Q07DX005 (ip), evaluation day not shown",49 [survivor count not shown] and 70 % of control [survivor count not shown]
same,T/C,"T/C endpoint: median tumor weight (est.), dose: 0.12 mg/kg/injection, schedule: Q07DX005 (ip), evaluated on day 30",39 % of control
same,T/C,"T/C endpoint: median tumor weight (est.), dose: 0.12 mg/kg/injection, schedule: Q07DX005 (ip), evaluation day not shown",61 % of control [survivor count not shown]
same,T/C,"T/C endpoint: median tumor weight (est.), dose: 0.13 mg/kg/injection, schedule: Q07DX005 (ip), evaluation day not shown",92 % of control [survivor count not shown]
same,T/C,"T/C endpoint: median tumor weight (est.), dose: 0.25 mg/kg/injection, schedule: Q07DX005 (ip), evaluated on day 30",48 % of control
same,T/C,"T/C endpoint: median tumor weight (est.), dose: 0.25 mg/kg/injection, schedule: Q07DX005 (ip), evaluation day not shown",34 [survivor count not shown] and 49 % of control [survivor count not shown]
same,T/C,"T/C endpoint: median tumor weight (est.), dose: 0.5 mg/kg/injection, schedule: Q07DX005 (ip), evaluated on day 30",75 % of control
same,T/C,"T/C endpoint: median tumor weight (est.), dose: 0.5 mg/kg/injection, schedule: Q07DX005 (ip), evaluation day not shown",5 [survivor count not shown] and 17 % of control [survivor count not shown]
same,T/C,"T/C endpoint: median tumor weight (est.), dose: 1.0 mg/kg/injection, schedule: Q07DX005 (ip), evaluated on day 30",28 % of control
